Measurements published in publication PMC7819943, “Rice protein-binding microarrays: a tool to detect cis-acting elements near promoter regions in rice”.
Some of the results follow.

The chains behind the UniProt entries cited, without tags or fusion partners.
UniProt Q0JBA9, entry or part of it: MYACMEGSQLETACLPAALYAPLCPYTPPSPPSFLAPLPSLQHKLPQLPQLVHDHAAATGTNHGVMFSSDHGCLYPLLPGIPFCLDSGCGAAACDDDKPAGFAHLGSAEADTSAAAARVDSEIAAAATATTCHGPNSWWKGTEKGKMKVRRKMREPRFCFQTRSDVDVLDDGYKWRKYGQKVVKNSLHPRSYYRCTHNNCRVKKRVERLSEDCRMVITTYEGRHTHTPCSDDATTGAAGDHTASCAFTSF

What follows are sequences tested against OsWRKY34 (Oryza sativa, UniProt Q0JBA9 1-250) (assay: protein-binding microarray (RPBM); PBS, 2% BSA, 51.3 ng/ul salmon testes DNA, 50 uM zinc acetate, 200 nM TF, 25 C, 1 h; high values mean tight binding). Settings: protein: recombinant; tags: N-terminal polyhistidine and DsRed monomer fusion (pET32a); label: CyDye5-dUTP incorporated in the synthesized complementary strand; 3' TTTTT single-stranded linker to array surface; dsDNA, one strand shown.
Outline: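 The binding signal for each feature is its fluorescence intensity in arbitrary units. An Axon 4000B scanner was used to read a custom Agilent array that had been made double-stranded with Cy5-dUTP primer extension, blocked with 2% BSA, incubated at 25 °C for 1 h with 200 nM protein in PBS, 2% BSA, salmon testes DNA and 50 µM zinc acetate, and washed. The protein was an N-terminal polyhistidine–DsRed transcription factor fusion from E. coli BL21-CodonPlus, purified on Ni–NTA.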
In the case of “CGCTGTCGATTCCGCGTTCATCGATTCGGCTTCCGCCGTCCGGAGTCACCTAGTGCAG”, the binding signal is reported as 9200 fluorescence intensity (a.u.). For “CGTCCGATCCATCTCCTCTCCGTTTCTCTCAGCTACTCTCCGGAGTCACCTAGTGCAG”, the binding signal was 8200 fluorescence intensity (a.u.). For “CCTGTTCTTCGCTCGATCCTCCAATTTCCTCTCCCAAATCCGGAGTCACCTAGTGCAG”, the binding signal was 11200 fluorescence intensity (a.u.). In the case of “GTCTTCTCTGTTCTTCTTCAGATGGCGAAAGCTCTCACCACGGAGTCACCTAGTGCAG”, the binding signal is reported as 10400 fluorescence intensity (a.u.). In the case of “GCCTGTTATTATACCTGCTCTTAGAGGACCTATGTGAACACGGAGTCACCTAGTGCAG”, the binding signal is reported as 8760 fluorescence intensity (a.u.). For “TGTTTGGTGCTGTCGGTACATGGGTGGTGGTTTTTTCTTTCGGAGTCACCTAGTGCAG”, the binding signal was 17500 fluorescence intensity (a.u.). With “GGAATCTGGGAGGTGGGTGGGCCCCACGGCGGAGACTCCGCGGAGTCACCTAGTGCAG” the binding signal was 17200 fluorescence intensity (a.u.). “CTGTCATTGTCGCCCACTGCCGATCCACCCTTCGCCCAAGCGGAGTCACCTAGTGCAG” was tested, and the binding signal was 16000 fluorescence intensity (a.u.). For “GTCGGGCGGGAGCGGTGCAGGGTGGAGGAGGTGGGCGGGGCGGAGTCACCTAGTGCAG”, the binding signal was 22900 fluorescence intensity (a.u.). With “CACCTTTTCGTTTATACTTATACTTAAAATTTAAATTTTTCGGAGTCACCTAGTGCAG” the binding signal was 8370 fluorescence intensity (a.u.). With “TCTCTTATGATTTGTTTGTCTGATACTCTGTCTGATCGGTCGGAGTCACCTAGTGCAG” the binding signal was 8640 fluorescence intensity (a.u.). With “ATTTGCACCTGTTGAATGGGCATGTCTTGTGTGTGTTTCTCGGAGTCACCTAGTGCAG” the binding signal was 8400 fluorescence intensity (a.u.). For “TCAATCTGTATAATTATTTTTTTTTCTATATTTAATACTGCGGAGTCACCTAGTGCAG”, the binding signal was 8310 fluorescence intensity (a.u.). “GAGGTGGAAATGGGAGGGGAAGAAGAGGCTGACATGGTGACGGAGTCACCTAGTGCAG” was tested, and the binding signal was 8440 fluorescence intensity (a.u.). “GAGCTTTTTTATTCTCTGGATGCCATATTTTTTACAGTTACGGAGTCACCTAGTGCAG” was tested, and the binding signal was 8740 fluorescence intensity (a.u.). For “CTTACTTTAAGGTGTGAGATTCATTCCTATCTCATTTTATCGGAGTCACCTAGTGCAG”, the binding signal was 10500 fluorescence intensity (a.u.). For “GTGTAGCTTCAACAGTTTGCCCTACCTCTTTACTCACATCCGGAGTCACCTAGTGCAG”, the binding signal was 10800 fluorescence intensity (a.u.). For “CACATGTTAATACATCTTCTCTATTTTGTTGATTTTTTCACGGAGTCACCTAGTGCAG”, the binding signal was 9770 fluorescence intensity (a.u.). With “CAGGCCCTTTCTATGCTATCCTCCTTTTTTTTTTGTCAACCGGAGTCACCTAGTGCAG” the binding signal was 10200 fluorescence intensity (a.u.). For “TGTGTGTGTTTTAATTAATTAACATTTATATAAATATGAACGGAGTCACCTAGTGCAG”, the binding signal was 8540 fluorescence intensity (a.u.). For “GGCGGCTAAGTGGGTTTTTTCGCGTTCCGCGCGGAGAAGACGGAGTCACCTAGTGCAG”, the binding signal was 9590 fluorescence intensity (a.u.). With “CAGGCCAGCATTTTGTTGTAGTAGCACTGTCTGTATGTTCCGGAGTCACCTAGTGCAG” the binding signal was 9010 fluorescence intensity (a.u.). With “GCAACCAACATCCCGGCGGCGAGCTCGTACGTACCAAATCCGGAGTCACCTAGTGCAG” the binding signal was 10800 fluorescence intensity (a.u.). “CCGCCGCCGCCGGGCCGCCGCCGCCTCGTGCACTGCCTTCCGGAGTCACCTAGTGCAG” was tested, and the binding signal was 8160 fluorescence intensity (a.u.). “AATTCCACTTACAATCATTTTTATTTCTTTACAAAATGCTCGGAGTCACCTAGTGCAG” was tested, and the binding signal was 8670 fluorescence intensity (a.u.). “AACCCGCTATGTATCATGCCAATTTTTTTAATCCACATGACGGAGTCACCTAGTGCAG” was tested, and the binding signal was 8760 fluorescence intensity (a.u.). “CAGGTGGACGGCGGTGGTGGTGGTGGTGGTGGCGGCGATGCGGAGTCACCTAGTGCAG” was tested, and the binding signal was 17000 fluorescence intensity (a.u.). “TCGAAACATAAGTATATGTTGGTATGTCCACGGTTTCTTTCGGAGTCACCTAGTGCAG” was tested, and the binding signal was 8380 fluorescence intensity (a.u.). For “ATAGCCACCACGACCCTCCGATTTTACGGTCGGCCCAGCCCGGAGTCACCTAGTGCAG”, the binding signal was 8360 fluorescence intensity (a.u.). For “CAAGCGCCGCATCTGCTCTCGAGTTTTCCGCTTCCGCAAACGGAGTCACCTAGTGCAG”, the binding signal was 8440 fluorescence intensity (a.u.). In the case of “TTGTACCCATTGCTTTGTTCAGTTGTCACTCACTCCTACTCGGAGTCACCTAGTGCAG”, the binding signal is reported as 12000 fluorescence intensity (a.u.). For “ACCCAGCGGCAACCGCTACTTCCTCCTGCTCGTCGACGACCGGAGTCACCTAGTGCAG”, the binding signal was 9240 fluorescence intensity (a.u.). With “ATCATTTTCACAATGTAAGTCATTCTAGCATTTTTCATATCGGAGTCACCTAGTGCAG” the binding signal was 8190 fluorescence intensity (a.u.). With “TAGTAGCTGTTGTTCATGTACAGTTTGGTTGTTCATTGGTCGGAGTCACCTAGTGCAG” the binding signal was 10700 fluorescence intensity (a.u.). “GAGACTTTGCCCTTTTATTTTCTTTCTTTTTTTTTTCCTTCGGAGTCACCTAGTGCAG” was tested, and the binding signal was 9360 fluorescence intensity (a.u.). In the case of “ACACACAAAATTACACAGCATCTGCCTTTATTTTTCTTTTCGGAGTCACCTAGTGCAG”, the binding signal is reported as 9230 fluorescence intensity (a.u.). “ATTTATTCTCGTTGCTACTTCTTTGCTGATCAAGATTCGCCGGAGTCACCTAGTGCAG” was tested, and the binding signal was 8680 fluorescence intensity (a.u.). With “TTTTTGGGCTTACACTGTCCCTTTTTTATCGCTGCGTCCACGGAGTCACCTAGTGCAG” the binding signal was 11500 fluorescence intensity (a.u.). With “AGGGGCGGAACTGGGTAGGCAGGGTGGGTTATATTTGAGCCGGAGTCACCTAGTGCAG” the binding signal was 10500 fluorescence intensity (a.u.). In the case of “TGCCTTCTCGGGCTCATGGTGGAGGGGCAGGGGCTGCCTTCGGAGTCACCTAGTGCAG”, the binding signal is reported as 9700 fluorescence intensity (a.u.). In the case of “TACTCGATCTCTCTCTGTTTCATATTATAAACCGTTTAAACGGAGTCACCTAGTGCAG”, the binding signal is reported as 8520 fluorescence intensity (a.u.). “CACACACACCCTGTCGAGCGAATATGCATGTCTTCTCAAGCGGAGTCACCTAGTGCAG” was tested, and the binding signal was 8960 fluorescence intensity (a.u.). With “ATATGACTATTCAGGTGTCCATAATGTTTCCTGTTTGTTTCGGAGTCACCTAGTGCAG” the binding signal was 12600 fluorescence intensity (a.u.). “TTGCAGCAAATTTGTTATAACATGCGCTCTCCTGTACTACCGGAGTCACCTAGTGCAG” was tested, and the binding signal was 9100 fluorescence intensity (a.u.). “GTAATTAGCTAATCAATCTTTTCGGCTGTGCTTAATTAACCGGAGTCACCTAGTGCAG” was tested, and the binding signal was 9050 fluorescence intensity (a.u.). For “GCTGGTCCCGTTTCTCACTTCGCAACACTAGGCTTTTTGCCGGAGTCACCTAGTGCAG”, the binding signal was 11400 fluorescence intensity (a.u.). “GCGGATCATCCTCCCCTGCCGCGCGTGGGTGTTGTCTTCTCGGAGTCACCTAGTGCAG” was tested, and the binding signal was 8430 fluorescence intensity (a.u.). “TTCCTCATTTATTCACTTGCCATGTCATTTTTTGTTCTAGCGGAGTCACCTAGTGCAG” was tested, and the binding signal was 13300 fluorescence intensity (a.u.). In the case of “TTGCGTCTGCGTTTTTTGGATTTCTGGGAGACATTCATTTCGGAGTCACCTAGTGCAG”, the binding signal is reported as 8240 fluorescence intensity (a.u.). For “GAGCTGCTGCTGTCTTTGGTGGGGTTTATATAGGTTTGCTCGGAGTCACCTAGTGCAG”, the binding signal was 9480 fluorescence intensity (a.u.). For “ACACGTGTCCAGTCGCGCGGGGAGGAGGGCATGCGACTGGCGGAGTCACCTAGTGCAG”, the binding signal was 8510 fluorescence intensity (a.u.). With “CCAGTTCCTATCCAATCTCTGGTCTTCCGGCAGGTCCCCGCGGAGTCACCTAGTGCAG” the binding signal was 9080 fluorescence intensity (a.u.). “GAGCCCTGGGTGCAGCAGCCTTGGAAATTTCTCTGCATTTCGGAGTCACCTAGTGCAG” was tested, and the binding signal was 8170 fluorescence intensity (a.u.). “GTTGTATTGGAATTCTTCAGTTCTCAGCTTGGCTTTACATCGGAGTCACCTAGTGCAG” was tested, and the binding signal was 8450 fluorescence intensity (a.u.).
